# Test results: patent US20100233194A1, “TREATMENT OF NEOVASCULAR OCULAR DISEASE STATES” (priority 2007, published 2010)
# For at least one compound, name, drawing or mass did not settle the structure.
# Tested on: VEGF-induced retinal vascular leakage
# Assay: VEGF-induced vascular leakage in a rabbit model of blood-retinal barrier breakdown (ocular fluorophotometry)
structure (smiles),measurement,setting,value
"CC1(C)O[C@@H]2C[C@H]3[C@@H]4CCC5=CC(=O)C=C[C@]5(C)[C@@]4(F)[C@@H](O)C[C@]3(C)[C@]2(C(=O)CO)O1 [TA, triamcinolone acetonide]",protective effect on VEGF-induced retinal vascular leakage (in words),"400 μg TA dose, intravitreal",significant and almost complete protective effect
same,"inhibition of the VEGF-induced retinal vascular leakage (dose dependence, in words)","intravitreal injection, TA 75, 135 and 400 μg",dose-dependent inhibition
